Assay results published in the supplement of paper PMC12067093, “Discovery and optimisation of a covalent ligand for TRIM25 and its application to targeted protein ubiquitination” (Chemical Science, 2025).
This is one part of the list.

Sequences of proteins named here, by UniProt entry; tags and fusion partners are left off. A change or cut given only in a name is not applied to a line headed by its entry.
UniProt P31939: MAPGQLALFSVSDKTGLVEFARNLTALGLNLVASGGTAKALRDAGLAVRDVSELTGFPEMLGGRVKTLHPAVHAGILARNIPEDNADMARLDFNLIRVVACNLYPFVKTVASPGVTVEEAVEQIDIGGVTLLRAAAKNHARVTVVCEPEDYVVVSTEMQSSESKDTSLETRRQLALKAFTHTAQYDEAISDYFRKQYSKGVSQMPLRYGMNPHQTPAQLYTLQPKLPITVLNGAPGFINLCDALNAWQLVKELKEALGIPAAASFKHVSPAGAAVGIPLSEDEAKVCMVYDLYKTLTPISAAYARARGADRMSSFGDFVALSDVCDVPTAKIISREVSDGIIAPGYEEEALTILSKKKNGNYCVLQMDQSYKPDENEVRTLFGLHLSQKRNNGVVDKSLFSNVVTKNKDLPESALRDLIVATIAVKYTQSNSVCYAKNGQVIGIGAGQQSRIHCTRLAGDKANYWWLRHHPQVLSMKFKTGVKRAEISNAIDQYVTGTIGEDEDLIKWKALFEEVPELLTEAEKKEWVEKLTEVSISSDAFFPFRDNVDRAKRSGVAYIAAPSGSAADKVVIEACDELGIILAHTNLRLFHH
UniProt Q13315: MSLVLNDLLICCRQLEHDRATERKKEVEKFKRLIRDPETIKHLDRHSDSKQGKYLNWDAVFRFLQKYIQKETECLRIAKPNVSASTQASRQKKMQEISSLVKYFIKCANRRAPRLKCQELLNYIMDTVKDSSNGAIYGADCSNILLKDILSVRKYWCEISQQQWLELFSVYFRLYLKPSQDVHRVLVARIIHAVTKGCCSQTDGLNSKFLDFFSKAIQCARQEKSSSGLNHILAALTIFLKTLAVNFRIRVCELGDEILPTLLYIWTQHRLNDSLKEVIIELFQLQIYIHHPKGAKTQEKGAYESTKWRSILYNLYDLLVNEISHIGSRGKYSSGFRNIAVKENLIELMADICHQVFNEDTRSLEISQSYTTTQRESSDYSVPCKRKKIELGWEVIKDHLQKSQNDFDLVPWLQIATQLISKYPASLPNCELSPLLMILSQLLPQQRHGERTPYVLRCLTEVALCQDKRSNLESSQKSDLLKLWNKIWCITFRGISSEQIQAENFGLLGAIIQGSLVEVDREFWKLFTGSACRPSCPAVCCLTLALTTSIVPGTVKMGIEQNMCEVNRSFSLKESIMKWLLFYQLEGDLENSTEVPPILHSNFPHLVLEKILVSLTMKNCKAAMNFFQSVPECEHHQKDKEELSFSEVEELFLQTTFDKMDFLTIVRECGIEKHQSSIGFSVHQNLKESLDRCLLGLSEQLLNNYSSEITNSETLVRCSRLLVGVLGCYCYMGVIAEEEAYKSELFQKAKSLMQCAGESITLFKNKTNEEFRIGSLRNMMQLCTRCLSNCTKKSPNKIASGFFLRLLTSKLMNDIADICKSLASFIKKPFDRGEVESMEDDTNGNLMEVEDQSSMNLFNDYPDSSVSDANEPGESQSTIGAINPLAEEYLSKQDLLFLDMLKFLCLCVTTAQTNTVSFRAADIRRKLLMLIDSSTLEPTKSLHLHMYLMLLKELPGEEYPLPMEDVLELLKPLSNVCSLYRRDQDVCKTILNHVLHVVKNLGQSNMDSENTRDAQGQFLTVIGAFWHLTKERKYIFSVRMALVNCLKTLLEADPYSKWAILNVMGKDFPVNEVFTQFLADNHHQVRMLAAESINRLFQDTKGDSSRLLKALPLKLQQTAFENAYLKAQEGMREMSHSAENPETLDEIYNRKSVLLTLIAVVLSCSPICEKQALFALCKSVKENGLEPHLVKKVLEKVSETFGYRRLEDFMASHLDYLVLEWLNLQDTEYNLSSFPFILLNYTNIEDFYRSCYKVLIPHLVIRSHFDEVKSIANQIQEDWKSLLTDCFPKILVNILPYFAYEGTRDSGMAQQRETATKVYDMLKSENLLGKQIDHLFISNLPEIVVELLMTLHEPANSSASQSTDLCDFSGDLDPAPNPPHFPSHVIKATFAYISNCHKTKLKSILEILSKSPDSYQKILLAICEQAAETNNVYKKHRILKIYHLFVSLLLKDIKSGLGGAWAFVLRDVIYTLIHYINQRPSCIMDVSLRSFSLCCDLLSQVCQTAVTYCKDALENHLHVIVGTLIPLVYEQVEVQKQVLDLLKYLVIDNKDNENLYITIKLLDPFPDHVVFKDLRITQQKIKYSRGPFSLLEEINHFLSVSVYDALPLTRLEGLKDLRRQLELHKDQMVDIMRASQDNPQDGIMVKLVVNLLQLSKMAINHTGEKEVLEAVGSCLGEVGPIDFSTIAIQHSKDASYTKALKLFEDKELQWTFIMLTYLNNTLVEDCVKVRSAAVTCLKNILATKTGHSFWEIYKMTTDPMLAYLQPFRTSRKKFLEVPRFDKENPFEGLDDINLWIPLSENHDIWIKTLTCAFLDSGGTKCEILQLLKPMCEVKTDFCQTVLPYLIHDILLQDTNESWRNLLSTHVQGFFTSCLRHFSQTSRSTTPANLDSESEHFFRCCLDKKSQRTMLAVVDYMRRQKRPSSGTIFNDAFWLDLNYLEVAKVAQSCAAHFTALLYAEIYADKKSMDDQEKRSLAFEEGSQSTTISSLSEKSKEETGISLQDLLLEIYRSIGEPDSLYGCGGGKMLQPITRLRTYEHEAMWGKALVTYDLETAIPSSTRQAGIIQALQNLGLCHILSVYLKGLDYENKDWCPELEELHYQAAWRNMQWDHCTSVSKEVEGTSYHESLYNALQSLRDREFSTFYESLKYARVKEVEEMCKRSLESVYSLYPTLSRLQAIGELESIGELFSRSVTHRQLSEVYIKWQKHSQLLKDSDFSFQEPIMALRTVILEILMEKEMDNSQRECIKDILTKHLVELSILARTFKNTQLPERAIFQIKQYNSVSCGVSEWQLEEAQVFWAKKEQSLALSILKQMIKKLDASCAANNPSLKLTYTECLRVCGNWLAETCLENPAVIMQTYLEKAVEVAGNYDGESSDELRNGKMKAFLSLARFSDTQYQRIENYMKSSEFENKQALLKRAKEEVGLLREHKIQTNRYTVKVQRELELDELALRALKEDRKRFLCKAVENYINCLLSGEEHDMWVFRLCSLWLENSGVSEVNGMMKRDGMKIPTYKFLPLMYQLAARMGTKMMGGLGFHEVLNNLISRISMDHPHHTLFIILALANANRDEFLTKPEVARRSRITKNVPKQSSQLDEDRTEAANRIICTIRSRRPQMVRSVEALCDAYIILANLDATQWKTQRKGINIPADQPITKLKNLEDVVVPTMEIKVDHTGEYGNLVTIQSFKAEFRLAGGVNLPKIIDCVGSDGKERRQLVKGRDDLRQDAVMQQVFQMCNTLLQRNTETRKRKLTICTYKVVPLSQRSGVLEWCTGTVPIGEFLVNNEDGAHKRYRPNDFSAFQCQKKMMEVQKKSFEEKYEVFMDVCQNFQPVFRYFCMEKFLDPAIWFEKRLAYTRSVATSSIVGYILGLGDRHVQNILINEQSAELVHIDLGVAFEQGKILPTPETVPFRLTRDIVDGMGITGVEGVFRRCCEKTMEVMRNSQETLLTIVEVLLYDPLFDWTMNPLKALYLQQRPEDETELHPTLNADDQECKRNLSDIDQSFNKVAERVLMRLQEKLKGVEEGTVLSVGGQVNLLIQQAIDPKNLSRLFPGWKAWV
UniProt Q6UW56: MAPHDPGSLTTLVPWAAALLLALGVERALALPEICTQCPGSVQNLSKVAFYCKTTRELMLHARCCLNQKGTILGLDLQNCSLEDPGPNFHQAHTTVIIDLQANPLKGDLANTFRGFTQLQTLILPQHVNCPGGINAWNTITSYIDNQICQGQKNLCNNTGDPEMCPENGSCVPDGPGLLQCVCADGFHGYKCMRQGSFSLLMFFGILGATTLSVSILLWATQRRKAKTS
UniProt P23634: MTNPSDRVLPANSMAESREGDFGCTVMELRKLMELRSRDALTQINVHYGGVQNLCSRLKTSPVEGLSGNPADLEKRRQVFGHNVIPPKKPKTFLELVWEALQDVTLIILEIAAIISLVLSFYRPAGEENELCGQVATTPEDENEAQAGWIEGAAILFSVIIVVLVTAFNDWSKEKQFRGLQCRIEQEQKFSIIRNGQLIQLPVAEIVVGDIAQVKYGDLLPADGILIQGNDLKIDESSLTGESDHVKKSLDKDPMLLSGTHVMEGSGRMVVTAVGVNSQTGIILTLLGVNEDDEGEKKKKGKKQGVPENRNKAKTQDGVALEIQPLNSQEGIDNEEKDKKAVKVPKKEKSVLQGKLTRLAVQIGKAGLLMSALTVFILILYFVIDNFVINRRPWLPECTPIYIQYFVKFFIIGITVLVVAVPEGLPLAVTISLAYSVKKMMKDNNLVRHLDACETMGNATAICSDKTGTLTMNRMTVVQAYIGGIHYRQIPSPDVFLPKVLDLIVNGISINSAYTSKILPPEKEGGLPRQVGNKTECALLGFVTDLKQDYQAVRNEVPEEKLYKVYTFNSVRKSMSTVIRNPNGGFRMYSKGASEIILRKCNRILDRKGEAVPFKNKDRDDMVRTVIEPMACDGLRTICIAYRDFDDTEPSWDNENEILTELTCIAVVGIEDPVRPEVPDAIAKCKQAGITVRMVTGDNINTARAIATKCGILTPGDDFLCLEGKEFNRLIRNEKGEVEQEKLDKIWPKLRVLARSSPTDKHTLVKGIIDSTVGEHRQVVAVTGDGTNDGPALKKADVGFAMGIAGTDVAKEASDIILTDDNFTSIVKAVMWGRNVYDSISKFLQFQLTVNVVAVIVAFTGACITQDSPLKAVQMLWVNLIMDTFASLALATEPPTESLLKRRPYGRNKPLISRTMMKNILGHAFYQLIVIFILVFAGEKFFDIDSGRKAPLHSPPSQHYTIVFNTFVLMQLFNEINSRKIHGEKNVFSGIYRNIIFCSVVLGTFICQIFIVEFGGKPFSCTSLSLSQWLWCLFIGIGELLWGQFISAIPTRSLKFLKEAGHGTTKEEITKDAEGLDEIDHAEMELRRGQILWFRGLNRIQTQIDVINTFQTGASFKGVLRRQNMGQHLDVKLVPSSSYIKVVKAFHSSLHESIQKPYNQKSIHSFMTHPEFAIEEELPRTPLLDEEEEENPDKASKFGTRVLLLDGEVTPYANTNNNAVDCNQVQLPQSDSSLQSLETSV
UniProt O00244: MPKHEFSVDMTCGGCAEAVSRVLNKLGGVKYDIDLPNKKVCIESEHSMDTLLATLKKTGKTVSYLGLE
UniProt Q9Y487, whole entry, looked up: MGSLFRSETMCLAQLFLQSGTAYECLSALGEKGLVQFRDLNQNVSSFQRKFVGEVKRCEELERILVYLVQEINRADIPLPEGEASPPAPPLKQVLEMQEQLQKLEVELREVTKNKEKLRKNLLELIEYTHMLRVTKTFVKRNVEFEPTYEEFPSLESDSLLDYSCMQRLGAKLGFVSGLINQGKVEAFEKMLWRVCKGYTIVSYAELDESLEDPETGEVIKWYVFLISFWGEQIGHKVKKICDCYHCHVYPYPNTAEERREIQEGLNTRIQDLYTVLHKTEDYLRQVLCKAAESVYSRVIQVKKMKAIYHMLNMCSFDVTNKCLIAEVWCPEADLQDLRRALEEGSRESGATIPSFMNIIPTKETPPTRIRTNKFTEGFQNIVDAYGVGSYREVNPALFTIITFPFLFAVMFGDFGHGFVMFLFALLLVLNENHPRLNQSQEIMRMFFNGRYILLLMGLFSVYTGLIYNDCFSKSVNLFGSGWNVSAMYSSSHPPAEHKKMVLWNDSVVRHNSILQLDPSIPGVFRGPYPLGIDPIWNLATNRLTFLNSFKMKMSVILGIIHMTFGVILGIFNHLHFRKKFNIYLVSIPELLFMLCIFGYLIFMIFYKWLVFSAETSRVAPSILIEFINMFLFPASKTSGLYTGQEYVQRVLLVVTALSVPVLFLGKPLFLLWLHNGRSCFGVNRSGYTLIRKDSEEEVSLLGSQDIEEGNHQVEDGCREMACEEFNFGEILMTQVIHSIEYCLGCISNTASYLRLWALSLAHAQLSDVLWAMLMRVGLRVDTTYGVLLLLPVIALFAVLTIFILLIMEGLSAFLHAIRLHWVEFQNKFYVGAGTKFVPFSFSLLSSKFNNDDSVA
UniProt Q96DT6: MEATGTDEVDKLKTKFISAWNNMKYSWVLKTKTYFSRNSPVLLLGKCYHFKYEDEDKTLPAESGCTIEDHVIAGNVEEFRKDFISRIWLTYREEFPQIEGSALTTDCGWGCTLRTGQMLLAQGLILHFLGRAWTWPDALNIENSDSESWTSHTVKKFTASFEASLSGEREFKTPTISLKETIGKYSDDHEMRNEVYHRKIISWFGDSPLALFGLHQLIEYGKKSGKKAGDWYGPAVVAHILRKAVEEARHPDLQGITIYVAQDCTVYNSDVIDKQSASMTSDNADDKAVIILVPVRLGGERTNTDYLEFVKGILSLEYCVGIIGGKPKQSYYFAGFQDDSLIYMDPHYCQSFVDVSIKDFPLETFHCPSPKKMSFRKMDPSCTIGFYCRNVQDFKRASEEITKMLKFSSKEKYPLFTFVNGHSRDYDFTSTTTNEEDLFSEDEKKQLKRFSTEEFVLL

Compound: Cc1cc(ccc1-c1ccccc1)C(=O)N1CCCN(CC1)C(=O)CCl [compound 10]
Test: probe-labelled cysteine peptide fold change vs DMSO (competition) (log2 fold change); higher = less target engagement (more negative = stronger competition)
Conditions: THP-1, incubation time: 4 h
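Further: competitive profiling in live THP-1 cells: cysteine peptides tagged with an iodoacetamide desthiobiotin (IA-DTB) probe, intensity after compound treatment relative to DMSO-treated cells.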

| Target | probe-labelled cysteine peptide fold change (10 µM) | probe-labelled cysteine peptide fold change (50 µM) |
| --- | --- | --- |
| ATL2_Q8NHH9_441_MGGDEFCR (UniProt Q8NHH9) | 0.177 | 0.222 |
| ATP13A1_Q9HD20_969+971_LSSIQCICHVIK (UniProt Q9HD20) | 0.206 | -0.0931 |
| ATIC_P31939_101_VVACNLYPFVK (UniProt P31939) | 0.119 | 0.0511 |
| ATG13_O75143_339_THCAATPSSSEDTETVSNSSEGR (UniProt O75143) | -0.397 | -0.299 |
| ASCC3_Q8N3C0_366_KAGEDLEVSEGLMCFDPK (UniProt Q8N3C0) | -0.217 | -0.375 |
| ATP2A2_P16615_471_ANACNSVIK (UniProt P16615) | -0.0995 | -0.102 |
| ATP1B3_P54709_250_EVTVECK (UniProt P54709) | -0.143 | -0.00337 |
| ATPAF2_Q8N5M1_276_TAAGTLFIHLCSESTTVK (UniProt Q8N5M1) | 0.0286 | 0.215 |
| ATP9B_O43861_551_AIVLCHNVTPVYESR (UniProt O43861) | -0.147 | -0.264 |
| ATP6V1B2_P21281_425_DHADVSNQLYACYAIGK (UniProt P21281) | 0.162 | 0.207 |
| ATP1A1_P05023_374_NLEAVETLGSTSTICSDK (UniProt P05023) | -0.155 | 0.0239 |
| ATRX_P46100_235_WCAEGGNLICCDFCHNAFCK (UniProt P46100) | 0.0337 | -0.0739 |
| ATM_Q13315_2770_SGVLEWCTGTVPIGEFLVNNEDGAHKR (UniProt Q13315) | 0.0886 | -0.152 |
| ATP2A1_O14983_561_CLALATR (UniProt O14983) | -0.0703 | -0.151 |
| ATRAID_Q6UW56_52_VAFYCK (UniProt Q6UW56) | 0.000745 | 0.172 |
| ATP2B4_P23634_632_TVIEPMACDGLR (UniProt P23634) | -0.0204 | -0.262 |
| ATXN10_Q9UBB4_165_NEDSQSIVWVHAFPELFLSCLNHPDK (UniProt Q9UBB4) | 0.282 | 0.343 |
| ASPSCR1_Q9BZE9_138_ECLQHPGGATPVCVYTR (UniProt Q9BZE9) | 0.0452 | 0.0342 |
| ASPH_Q12797_384_AQCEDDLAEK (UniProt Q12797) | 0.169 | 0.0426 |
| ATOX1_O00244_41_VCIESEHSMDTLLATLK (UniProt O00244) | 0.31 | 0.0516 |

| Target | probe-labelled cysteine peptide fold change (10 µM) | probe-labelled cysteine peptide fold change (50 µM) |
| --- | --- | --- |
| ATP13A1_Q9HD20_13+18_AAAAAVGNAVPCGARPCGVRPDGQPK (UniProt Q9HD20) | -0.44 | -0.541 |
| ASXL2_Q76L83_1225_ETLSTSDCLASK (UniProt Q76L83) | -0.081 | -0.199 |
| ATL3_Q6DD88_429_ELYENFCK (UniProt Q6DD88) | 0.124 | 0.131 |
| ASCC3_Q8N3C0_1535_QMGLFNFRPSVRPVPLEVHIQGFPGQHYCPR (UniProt Q8N3C0) | -0.137 | 0.0936 |
| ATP6V0A2_Q9Y487_330_CLIAEVWCPEADLQDLRR (UniProt Q9Y487) | -0.0967 | -0.0893 |
| ATRX_P46100_1844_MTSIQCK (UniProt P46100) | 0.0113 | 0.0117 |
| ATIC_P31939_434_YTQSNSVCYAK (UniProt P31939) | 0.0833 | 0.05 |
| ATG4B_Q9Y4P1_189_TSVPCAGATAFPADSDR (UniProt Q9Y4P1) | 0.00721 | -0.338 |
| ATP6V0A1_Q93050_58_RCEEMDR (UniProt Q93050) | 0.102 | 0.183 |
| ATL2_Q8NHH9_59_KPCPVQIVLAHEDDHNFELDEEALEQILLQEHIR (UniProt Q8NHH9) | -0.148 | 0.162 |
| ATP1A1_P05023_518_CSSILLHGK (UniProt P05023) | -0.0171 | -0.0166 |
| ATM_Q13315_1396_ATFAYISNCHK (UniProt Q13315) | -1.94 | -2.52 |
| ATG4C_Q96DT6_367_DFPLETFHCPSPK (UniProt Q96DT6) | 0.0833 | 0.0549 |
| ATL2_Q8NHH9_293_HIHNCFSNLGCFLLPHPGLK (UniProt Q8NHH9) | -0.0463 | -0.137 |
| ATG12_O94817_134_LVLHYCK (UniProt O94817) | 0.129 | 0.11 |
| ATP2B4_P23634_55_DALTQINVHYGGVQNLCSR (UniProt P23634) | -0.261 | 0.162 |
| ATM_Q13315_564_MGIEQNMCEVNR (UniProt Q13315) | -0.329 | -0.677 |
| ATG9A_Q7Z3C6_331_CWSLYGR (UniProt Q7Z3C6) | -0.152 | -0.424 |
| ARRB2_P32121_270_CPVAQLEQDDQVSPSSTFCK (UniProt P32121) | 0.16 | 0.348 |

Taken from above:
ATG4C_Q96DT6_367_DFPLETFHCPSPK (UniProt Q96DT6) | probe-labelled cysteine peptide fold change (50 µM): 0.0549
ATG9A_Q7Z3C6_331_CWSLYGR (UniProt Q7Z3C6) | probe-labelled cysteine peptide fold change (50 µM): -0.424
ATP6V0A2_Q9Y487_330_CLIAEVWCPEADLQDLRR (UniProt Q9Y487) | probe-labelled cysteine peptide fold change (50 µM): -0.0893
